Measured values: the supplement of paper PMC4604168 (melanoma cell lines)
Some of the results follow. Single values are uncertain, as repeats are few or missing.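 Cells were imaged in 1,536-well plates, and nuclei stained with an antibody against cleaved PARP were counted against all DNA-stained nuclei to give the apoptosis fraction. Screening doses were chosen to leave most cells alive, and resting and induced cleaved-PARP levels differ strongly between cell lines.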

Tested on: WM1745
Assay: cleaved PARP positive nuclei fraction relative to DMSO control; melanoma cells; higher = more apoptosis
Conditions: library dose: low library concentration; 72 h

SMILES	cleaved PARP positive nuclei fraction [%]
N#CC[C@H](C1CCCC1)n1cc(-c2ncnc3[nH]ccc23)cn1 [ruxolitinib] + C=CCNC1=C2C[C@@H](C)C[C@H](OC)[C@H](O)[C@@H](C)/C=C(\C)[C@H](OC(N)=O)[C@@H](OC)/C=C\C=C(/C)C(=O)NC(=CC1=O)C2=O [Tanespimycin] (first compound 1 µM, partner dose 0.002 µM)	126
Cc1cn(-c2cc(NC(=O)c3ccc(C)c(Nc4nccc(-c5cccnc5)n4)c3)cc(C(F)(F)F)c2)cn1 [nilotinib] + COCC[n+]1c2c(n(Cc3cnccn3)c1C)C(=O)c1ccccc1C2=O [YM155] (first compound 0.2 µM, partner dose 0.0004 µM)	94.2
Cc1cn(-c2cc(NC(=O)c3ccc(C)c(Nc4nccc(-c5cccnc5)n4)c3)cc(C(F)(F)F)c2)cn1 [nilotinib] + CCN(CC)CCNC(=O)c1c(C)[nH]c(/C=C2\C(=O)Nc3ccc(F)cc32)c1C [sunitinib] (first compound 0.2 µM, partner dose 0.4 µM)	102
COc1cc([C@@H]2c3cc4c(cc3[C@@H](O[C@@H]3O[C@@H]5CO[C@@H](C)O[C@H]5[C@H](O)[C@H]3O)[C@H]3COC(=O)[C@H]23)OCO4)cc(OC)c1O [etoposide] + CNC(=O)c1cc(Oc2ccc(NC(=O)Nc3ccc(Cl)c(C(F)(F)F)c3)cc2)ccn1 [sorafenib] (first compound 0.02 µM, partner dose 0.4 µM)	101
Cc1cc(Nc2cc(N3CCN(C)CC3)nc(Sc3ccc(NC(=O)C4CC4)cc3)n2)n[nH]1 [Tozasertib] + CN1CCN(c2ccc3nc(-c4c(N)c5c(F)cccc5[nH]c4=O)[nH]c3c2)CC1 [Dovitinib] (first compound 0.006 µM, partner dose 0.1 µM)	122
